Experiment [1] concerns the target HisGST-PDS5A 1-809 (Arabidopsis thaliana). Put plainly: pull-down.
For experiment [2] the target is unchanged. The experiment is described as follows: pull-down. This is another data set of the same source.
Experiment [3] concerns the target PDS5A 810-1607, yeast two-hybrid fusion (Arabidopsis thaliana) (UniProt B6EUB3). The experiment is described as follows: two-hybrid.
Experiment [4] deals with PDS5A 1-809, yeast two-hybrid fusion (Arabidopsis thaliana). Put plainly: two-hybrid.
The target in experiment [5] is PDS5A, BiFC fusion (Arabidopsis thaliana) (UniProt B6EUB3). Put plainly: split reporter.

Amino acid sequences for entries named in this document (tags omitted). A change or cut given only in a name is not applied to a line headed by its entry.
UniProt B6EUB3: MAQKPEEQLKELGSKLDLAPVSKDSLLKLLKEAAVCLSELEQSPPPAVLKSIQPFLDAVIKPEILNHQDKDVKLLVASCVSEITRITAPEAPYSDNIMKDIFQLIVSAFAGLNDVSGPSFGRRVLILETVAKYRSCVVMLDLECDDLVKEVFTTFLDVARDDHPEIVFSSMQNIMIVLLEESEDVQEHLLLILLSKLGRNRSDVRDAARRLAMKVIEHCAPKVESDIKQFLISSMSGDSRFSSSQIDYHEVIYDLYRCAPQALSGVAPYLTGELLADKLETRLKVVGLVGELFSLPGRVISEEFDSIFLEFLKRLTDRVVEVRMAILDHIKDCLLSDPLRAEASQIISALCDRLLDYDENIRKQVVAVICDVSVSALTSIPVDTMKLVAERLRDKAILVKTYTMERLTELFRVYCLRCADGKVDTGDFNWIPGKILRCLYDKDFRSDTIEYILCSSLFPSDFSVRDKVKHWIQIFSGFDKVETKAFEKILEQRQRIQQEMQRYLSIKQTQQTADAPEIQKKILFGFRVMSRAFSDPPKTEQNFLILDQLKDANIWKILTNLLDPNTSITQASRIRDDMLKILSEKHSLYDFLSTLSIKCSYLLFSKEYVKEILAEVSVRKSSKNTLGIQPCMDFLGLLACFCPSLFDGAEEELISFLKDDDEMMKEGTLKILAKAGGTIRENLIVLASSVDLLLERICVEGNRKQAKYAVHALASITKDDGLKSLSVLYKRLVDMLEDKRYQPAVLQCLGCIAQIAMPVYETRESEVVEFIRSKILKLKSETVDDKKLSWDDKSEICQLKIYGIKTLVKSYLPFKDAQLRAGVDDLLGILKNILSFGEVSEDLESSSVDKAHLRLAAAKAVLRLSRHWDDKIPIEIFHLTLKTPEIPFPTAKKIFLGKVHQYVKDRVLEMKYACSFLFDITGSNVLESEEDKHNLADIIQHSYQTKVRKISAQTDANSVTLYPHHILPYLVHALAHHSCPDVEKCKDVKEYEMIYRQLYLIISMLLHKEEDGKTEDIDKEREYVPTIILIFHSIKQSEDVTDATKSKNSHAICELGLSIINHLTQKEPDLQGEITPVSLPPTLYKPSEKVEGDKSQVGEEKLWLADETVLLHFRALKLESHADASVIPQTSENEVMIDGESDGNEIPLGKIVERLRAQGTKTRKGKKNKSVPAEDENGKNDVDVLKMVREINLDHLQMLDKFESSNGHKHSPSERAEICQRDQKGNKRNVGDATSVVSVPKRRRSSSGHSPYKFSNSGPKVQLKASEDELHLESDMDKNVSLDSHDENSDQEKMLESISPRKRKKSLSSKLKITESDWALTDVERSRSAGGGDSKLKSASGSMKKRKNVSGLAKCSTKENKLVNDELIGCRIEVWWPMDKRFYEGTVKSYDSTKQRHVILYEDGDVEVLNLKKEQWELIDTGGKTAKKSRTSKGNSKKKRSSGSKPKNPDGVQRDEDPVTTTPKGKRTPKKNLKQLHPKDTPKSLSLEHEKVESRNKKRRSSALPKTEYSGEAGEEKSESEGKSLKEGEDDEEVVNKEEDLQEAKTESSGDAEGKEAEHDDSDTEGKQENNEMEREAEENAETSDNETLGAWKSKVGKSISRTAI

Consider seven molecules from paper doi:10.1101/551317.

Like-named read-outs stand apart in the source and are kept apart here. Results are given in words; binding and its absence hold for the method and conditions named. For some assays here: A result given as binding can be weak or reduced; the word gives no strength. For some assays here: Where a sequence is shown, tags or fusion partners need not be part of it. For some assays here: In cells and extracts the contact can be indirect.

B1: HisMBP-WAPL1 (protein, UniProt F4I7C7 1-930)
chain: MIIVKLTANRICCSLLQLRRSYEHFYIFVFLPEIPLFRFSHLKLFPKNLQIQRLVSAMMERTYGRRKPGIPRTLSDSLNDSVSQTEYLSSSSSPDIEPIDYSLLPFSSQESSSLWHSSSRSNFREDYPQNGGVVRRAKRVRNGAEAAAFTSTLLEAQEFGELMEHEDEVNFALDGLRKGHQLRIRRASLSSLLSICASQHQRRSLRAQGISQSIIDAILVLSLDDIPSNLAAATLFFALTADGQDEHFMESPKCIKFLIKLLKPVIVTSTEGKPRNIGFKLLSLLKDVDAARDPVKMDDPSSSDILSRVQELLVNCKEMRLNDSYITETTRPELSTKWVALLAMERACVSKISFDDTSGSVKKTGGNFKEKLRELGGLDAVLEVVMDCHAVMERWVEYDALSVQEKKDNLHKQSLMLLLKCLKIMENATFLSTDNQNHLLGFKKCLGSHDSRMSFTELTISVIKMLSGLHLRGGFSSPNTNNVNSHYSNGGNHDSVLEANRKVTNEVVTISSDTYSTVGSISTRNGSVSQRSQSIIHLDFSPTSMSGSQSSVSGNEPTTSKTRVGSTISGSFAGRLASLGSDIARTTLRTTQAGEPICKKFGEFAPPEESEDPFAFDLEDYKPSKWAVVSVNQKKSRAQKKKGCYKQSKDESLYQLFSSQEESSNHRLNSQEESSNRDCSTSLQPSHCTNDIDEECLCLLFDCLLTAVKVLMNLTNDNVVGCRQVGGCRGLESMAELIARHFPSFTRSQLFSEMEKTGSSHQKKDKYLTDQELDFLVAILGLLVNLVERDGVNRSRLASASVPITKPEELQESEQEMIPLLCSIFLTNQGSAETKEETTTFTLDDEEAVLEGEKEAEKMIVEAYSALLLAFLSTESRSIRNSIKDYLPKRNLAILVPVLERFVAFHMTLNMIPPETHKAVMGVIESCKSP
Take B1: the binding entry in experiment [1] and in experiment [2] was “binds” in each case.

B2: WINGS APART-LIKE 1 (WAPL1), yeast two-hybrid fusion (protein, UniProt F4I7C7 1-930)
chain: B1 chain
On to B2, for which the binding entry is given as “no binding” in experiment [3] and “binds” in experiment [4].

B3: HisMBP-SWI1 1-300 (domain or fragment, UniProt Q9FGN8 1-300)
chain: MSSTMFVKRNPIRETTAGKISSPSSPTLNVAVAHIRAGSYYEIDASILPQRSPENLKSIRVVMVSKITASDVSLRYPSMFSLRSHFDYSRMNRNKPMKKRSGGGLLPVFDESHVMASELAGDLLYRRIAPHELSMNRNSWGFWVSSSSRRNKFPRREVVSQPAYNTRLCRAASPEGKCSSELKSGGMIKWGRRLRVQYQSRHIDTRKNKEGEESSRVKDEVYKEEEMEKEEDDDDGNEIGGTKQEAKEITNGNRKRKLIESSTERLAQKAKVYDQKKETQIVVYKRKSERKFIDRWSVER
On to B3, for which the binding result in experiment [1] and in experiment [2] was “binds” in each case.

B4: SWI1 1-300, yeast two-hybrid fusion (domain or fragment, UniProt Q9FGN8 1-300)
chain: B3 chain
Take B4: the binding result in experiment [4] is “binds”.

B5: SWI1 301-639, yeast two-hybrid fusion (domain or fragment, UniProt Q9FGN8 301-639)
chain: YKLAERNMLKVMKEKNAVFGNSILRPELRSEARKLIGDTGLLDHLLKHMAGKVAPGGQDRFMRKHNADGAMEYWLESSDLIHIRKEAGVKDPYWTPPPGWKLGDNPSQDPVCAGEIRDIREELASLKRELKKLASKKEEEELVIMTTPNSCVTSQNDNLMTPAKEIYADLLKKKYKIEDQLVIIGETLRKMEEDMGWLKKTVDENYPKKPDSTETPLLLEDSPPIQTLEGEVKVVNKGNQITESPQNREKGRKHDQQERSPLSLISNTGFRICRPVGMFAWPQLPALAAATDTNASSPSHRQAYPSPFPVKPLAAKRPLGLTFPFTIIPEEAPKNLFNV
As to B5, the binding result in experiment [4] is given as “no binding”.

B6: SWITCH 1/DYAD (SWI1), yeast two-hybrid fusion (protein, UniProt Q9FGN8 1-639)
chain: MSSTMFVKRNPIRETTAGKISSPSSPTLNVAVAHIRAGSYYEIDASILPQRSPENLKSIRVVMVSKITASDVSLRYPSMFSLRSHFDYSRMNRNKPMKKRSGGGLLPVFDESHVMASELAGDLLYRRIAPHELSMNRNSWGFWVSSSSRRNKFPRREVVSQPAYNTRLCRAASPEGKCSSELKSGGMIKWGRRLRVQYQSRHIDTRKNKEGEESSRVKDEVYKEEEMEKEEDDDDGNEIGGTKQEAKEITNGNRKRKLIESSTERLAQKAKVYDQKKETQIVVYKRKSERKFIDRWSVERYKLAERNMLKVMKEKNAVFGNSILRPELRSEARKLIGDTGLLDHLLKHMAGKVAPGGQDRFMRKHNADGAMEYWLESSDLIHIRKEAGVKDPYWTPPPGWKLGDNPSQDPVCAGEIRDIREELASLKRELKKLASKKEEEELVIMTTPNSCVTSQNDNLMTPAKEIYADLLKKKYKIEDQLVIIGETLRKMEEDMGWLKKTVDENYPKKPDSTETPLLLEDSPPIQTLEGEVKVVNKGNQITESPQNREKGRKHDQQERSPLSLISNTGFRICRPVGMFAWPQLPALAAATDTNASSPSHRQAYPSPFPVKPLAAKRPLGLTFPFTIIPEEAPKNLFNV
For the molecule B6, the binding result in experiment [3] is “no binding”; in experiment [4] it was “binds”.

B7: SWI1-mTurquiose2 (protein, UniProt Q9FGN8 1-639)
chain: B6 chain
Take B7: the binding entry in experiment [5] was “binds”.
